Measured values reported in patent US20050187176.

The chains behind the UniProt entries cited, without tags or fusion partners. Residues count along the entry.
UniProt Q9Y6K9, whole entry: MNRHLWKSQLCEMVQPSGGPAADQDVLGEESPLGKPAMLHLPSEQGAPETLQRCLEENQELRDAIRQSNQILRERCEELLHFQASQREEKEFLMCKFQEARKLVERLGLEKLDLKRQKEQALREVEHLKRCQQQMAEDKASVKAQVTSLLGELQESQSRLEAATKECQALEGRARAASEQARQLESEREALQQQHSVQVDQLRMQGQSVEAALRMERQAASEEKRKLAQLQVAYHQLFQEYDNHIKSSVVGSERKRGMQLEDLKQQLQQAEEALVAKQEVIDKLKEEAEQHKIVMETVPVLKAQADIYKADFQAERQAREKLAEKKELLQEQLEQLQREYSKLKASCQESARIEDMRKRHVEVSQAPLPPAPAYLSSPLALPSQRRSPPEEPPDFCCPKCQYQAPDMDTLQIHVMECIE
UniProt P19338, 2-710: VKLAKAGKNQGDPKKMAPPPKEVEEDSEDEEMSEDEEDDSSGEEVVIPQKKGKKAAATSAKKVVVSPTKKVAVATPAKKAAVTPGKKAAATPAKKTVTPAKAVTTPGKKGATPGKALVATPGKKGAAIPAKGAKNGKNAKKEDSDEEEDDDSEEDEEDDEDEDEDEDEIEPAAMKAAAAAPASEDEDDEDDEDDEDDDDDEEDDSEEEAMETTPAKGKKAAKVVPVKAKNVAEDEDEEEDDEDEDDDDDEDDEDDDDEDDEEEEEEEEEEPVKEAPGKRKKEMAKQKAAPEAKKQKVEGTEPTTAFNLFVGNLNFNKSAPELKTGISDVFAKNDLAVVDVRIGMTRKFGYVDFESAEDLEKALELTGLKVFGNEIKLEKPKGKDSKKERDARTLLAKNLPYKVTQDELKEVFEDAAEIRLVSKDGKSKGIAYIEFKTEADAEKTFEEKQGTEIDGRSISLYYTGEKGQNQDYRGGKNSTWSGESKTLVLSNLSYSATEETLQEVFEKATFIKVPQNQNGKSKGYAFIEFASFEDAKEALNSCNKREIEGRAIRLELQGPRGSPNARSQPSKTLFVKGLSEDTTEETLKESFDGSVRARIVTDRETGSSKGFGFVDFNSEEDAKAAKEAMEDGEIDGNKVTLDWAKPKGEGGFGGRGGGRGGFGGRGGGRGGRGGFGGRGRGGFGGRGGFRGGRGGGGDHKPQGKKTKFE

Legend:
NEMO (IKK-gamma) = NEMO (IKK-gamma) (UniProt Q9Y6K9); test: pull-down; details: 3'-aminoalkyl (C3 or C6), phosphodiester backbone, protein details: endogenous, label: 5'-biotin
NF-kappaB = test: EMSA; details: 20 mM HEPES pH 7.9, 50 mM KCl, 1 mM EDTA, room temp; complex reduced in extracts of GRO-treated cells; protein in an extract; label: 32P end-label
nucleolin = nucleolin (UniProt P19338); test: pull-down; details: 3'-aminoalkyl (C3 or C6), phosphodiester backbone; 3 uM oligo on HeLa cells 2 h, streptavidin capture, Western blot; protein in cells; protein details: endogenous, oligonucleotide-treated HeLa cells; label: 5'-biotin; single-stranded DNA

TTTGGTGGTGGTGGTTGTGGTGGTGGTGG [GRO29A]
binding result (NEMO (IKK-gamma); streptavidin beads, 30 min 37 C, identified by MALDI-TOF, may be indirect, protein in an extract, HeLa nuclear and S-100 extracts, single-stranded DNA): binds

TGCAGGAGGTCCGGCTTTTCCCCAACCCCCC (double strand) [NF-kappaB upstream response element (URE)]
binding result (NF-kappaB): binds

GGTGGTGGTGGTTGTGGTGGTGGTGG [GRO26B]
binding result (nucleolin): binds
binding result (NEMO (IKK-gamma); 3 uM oligo on HeLa cells 2 h, streptavidin capture, Western blot, possibly via nucleolin ternary complex, protein in cells, oligonucleotide-treated HeLa cells, single-stranded …): binds

For at least one entry, the source does not settle the construct or the ends of the probe. Where cells or extracts were used, other partners may take part.
